This is an account of results in publication PMC7988011, “NAC blocks Cystatin C amyloid complex aggregation in a cell system and in skin of HCCAA patients” (Nature Communications, 2021).

The target of test [1] is L68Q variant of human cystatin C (human) (UniProt P01034). Nature of the test: sucrose gradient ultracentrifugation; L68Q-hCC cell lysates on 5-30% sucrose step gradients, 16 h, 4 °C, 246,000×g; fractions TCA-precipitated and blotted for cystatin C; untreated, or treated with 10 mM NAC or 5% β-mercaptoethanol.
Test [2] shares this target. The test is described as follows: condition: only with 10 mM GSH or NAC in the culture medium; non-reducing SDS-PAGE with Western blot; supernatants of cells cultured with 10 mM GSH or NAC, sampled at 24 and 48 h.
Test [3] shares this target. The test is described as follows: SDS-PAGE with Western blot after reduction with DTT; mutant lysates or supernatants treated with DTT (50 mM final concentration in reduced samples); blotted with anti-cystatin C. (In general: Immunoblotting shows a protein as a band on a membrane.)
Test [4] shares this target. The test is described as follows: non-reducing SDS-PAGE with Western blot; lysates (1% NP-40 buffer) and supernatants of stable HEK-293T cells; 2% SDS sample buffer without reducing agent, not heated; NuPAGE 4-12% Bis-Tris; blotted with anti-cystatin C MAB1196.

These are yes or no findings as the source states them, for the method shown. Some entries that bind do so weakly or less than the wild type.

B1: L68Q variant of human cystatin C (natural protein, UniProt P01034 27-146, looked up)
chain: SSPGKPPRLVGGPMDASVEEEGVRRALDFAVGEYNKASNDMYHSRALQVVRARKQIVAGVNYFLDVEQGRTTCTKTQPNLDNCPFHDQPHLKRKAFCSFQIYAVPWQGTMTLSKSTCQDA
notes: Vector pBABE-CMV-Puro; also called L68Q-hCC; hCC L68Q
Regarding B1, the binding entry in test [1] is “binds”; in test [2], “no binding”; in test [3], “no binding (condition: with DTT)”; in test [4], “binds”.
